Experimental data published in paper PMC9174988.
These are yes or no findings as the source states them, for the method shown. Binding seen in cells or lysates may run through a third protein. Some entries that bind do so weakly or less than the wild type. For part of these data: Where a sequence is shown, tags or fusion partners need not be part of it.

T1: hCLN6 (AAV9-hCLN6 transgene) (human) (UniProt Q9NWW5)
T1 sequence: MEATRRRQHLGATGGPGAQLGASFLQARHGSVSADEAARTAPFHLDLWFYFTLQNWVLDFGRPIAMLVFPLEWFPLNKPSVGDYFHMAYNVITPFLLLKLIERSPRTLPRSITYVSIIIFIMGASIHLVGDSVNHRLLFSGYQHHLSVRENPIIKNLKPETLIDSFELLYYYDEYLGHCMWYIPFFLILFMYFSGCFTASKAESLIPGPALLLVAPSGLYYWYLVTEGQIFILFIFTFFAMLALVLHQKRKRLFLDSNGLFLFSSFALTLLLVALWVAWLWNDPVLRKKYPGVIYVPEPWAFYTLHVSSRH

T2: CLN3 (tagged CLN3 expression plasmid) (UniProt Q13286)
T2 sequence: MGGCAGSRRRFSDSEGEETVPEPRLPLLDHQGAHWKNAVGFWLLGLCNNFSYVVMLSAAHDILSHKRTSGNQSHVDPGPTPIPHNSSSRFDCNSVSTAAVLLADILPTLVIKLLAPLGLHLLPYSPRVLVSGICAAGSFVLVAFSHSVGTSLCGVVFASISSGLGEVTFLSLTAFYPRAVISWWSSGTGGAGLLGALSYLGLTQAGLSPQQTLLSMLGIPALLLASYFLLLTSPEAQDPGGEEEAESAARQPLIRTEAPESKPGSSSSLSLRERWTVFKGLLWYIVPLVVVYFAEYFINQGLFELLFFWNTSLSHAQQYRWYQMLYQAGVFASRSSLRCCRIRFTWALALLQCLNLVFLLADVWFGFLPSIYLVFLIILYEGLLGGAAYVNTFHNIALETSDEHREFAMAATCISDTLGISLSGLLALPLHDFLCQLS

B1: VTI1B (mouse cortex) (protein, UniProt O88384 1-232)
chain: MAASAASSEHFEKLHEIFRGLLEDLQGVPERLLGTAGTEEKKKLVRDFDENQQEANETLAEMEEELRYAPLTFRNPMMSKLRNYRKDLAKLHREVRSTPLTAAPGGRGDLKYGTYTLENEHLNRLQSQRALLLQGTESLNRATQSIERSHRIATETDQIGTEIIEELGEQRDQLERTKSRLVNTNENLSKSRKILRSMSRKVITNKLLLSVIILLELAILVGLVYYKFFRHH
B2: Synaptobrevin homolog YKT6 (mouse cortex) (protein, UniProt Q9CQW1 1-198)
chain: MKLYSLSVLYKGDPKAVLLKAAYDVSSFSFFQRSSVQEFMTFTSQLIVERSGKGSRASVKEQEYLCHVYVRSDSLAGVVIADSEYPSRVAFTLLEKVLDEFSKQVDRIDWPVGSPATIQYTGLDDHLSKYQNPREADPMSKVQAELDETKIILHNTMESLLERGEKLDDLVSKSEVLGTQSKAFYKTARKQNSCCAIM
B3: TBC1D15 (protein, UniProt Q9CXF4 1-671)
chain: MAAAGVVSGKIIYEQEGVYIHSSCGKANDQDSLISGILRVLEKDAEVIVDWRPLDDALDSSSILCAGKDSSSVVEWTQAPKERAHRGSDQQSSYEAEWDMVTTVSFKKKPHTNGDAPGHRNGKSKWSFLFSLADLKSVKQSKEGMGWSYLVFCLKDDVMLPALHFHQGDSKLLIESLEKYVVLCESPQDSRTLLVNCQNKSLSQSFENLLDEPAYGLIQKIKKDPYTATMVGFSKVTNYIFDSLRGSDPSTHQRPPSEMADFLSDAIPGLKINQQEEPGFEVITRIDLGERPVVQRREPVSLEEWNKSLDPEGRLVAVESMKQKIFRGGLSHSLRKQAWKFLLGYFPWDSTKEERTQLQKQKTDEYFRMKLQWKSVSEAQEKRNSRLRDYRSLIEKDVNRTDRTNKFYEGQDNPGLILLHDILMTYCMYDFDLGYVQGMSDLLSPLLYVMENEVDAFWCFASYMDQMHQNFEEQMQGMKTQLIQLSTLLRLLDSGFCSYLESQDSGYLYFCFRWLLIRFKREFSFLDILRLWEVMWTELPCKNFHLLLCCAILESEKQQIMAKHYGFNEILKHINELSMKIDVEDILCKAEAISLQMAQCKELPQAVCEILGLQDSEITTPDSDTDENVGSPCPVSAFPSSTLPILAASEAKDDSPTQTLASPNACRLTPA
B4: TBC1D5 (protein, UniProt Q80XQ2 1-815)
chain: MYKSVSETRHPLQSEEQEVGIDPLFSYSNKTRGDLSQNGRGSNSTLDTEGTFNSYMKEWEELFVNNNYLATVRQKGINGQLRSSRFRSICWKLFLCVLPQDKSQWISKIKELRAWYSSIKEIHITNPRKAAGQQDLMINNPLSQDEGSLWNKFFQDKELRSMIEQDVKRTFPEMQFFQQENVRKILTDVLFCYARENEQLLYKQGMHELLAPIIFTLHCDHQAFLHASESAQPSEEMKTLLNPEYLEHDAYAMFSQLMETAEPWFSTFEHDGQKGKETLMAPIPFARPQDLGPTVAIVTKVNQIQDHLLKKHDIELYMHLNRLEIAPQIYGLRWVRLLFGREFPLQDLLVVWDALFADSLNLSLVDYVFTAMLLYIRDALISSNYQTCLGLLMHYPIIGDIHSLILKALFLRDPKRNPRPATYQFHPNLDYYKARGADLMNKSRTNARGAPLNIHKVSNSLINFGRKLISPASAPGSMGGPVPGNNSSSSFSAAIPTRTSTEAPRHHLLQQQQQQQHQQQQQQQPQQQQQQHQQQQQQQRLMKSESMPVQLNKGQSSKTISSSPSIESLPGGREFTGSPPPSATKKDSFFSNIARSRSHSKTMGRKESEEELEAQISFLQGQLNDLDAMCKYCAKVMDMHLVNIQDVVLQENLEKEDQILVSLAGLKQIKDILKGSLRFNQSQLEAGENEQITIADDHYCSSGQDQGSQVPRAAKQASSEMPGCTGGTTPDDFILVSKEDEGHRARGAFSGQAQPLLTLRSTSGKSRAPACSPLLFSDPLMGPASASASSSNPSSSPDDDSSKESGFTIVSPLDI
B5: VTI1B (in neuroblastoma cells) (protein, UniProt O88384 1-232)
chain: MAASAASSEHFEKLHEIFRGLLEDLQGVPERLLGTAGTEEKKKLVRDFDENQQEANETLAEMEEELRYAPLTFRNPMMSKLRNYRKDLAKLHREVRSTPLTAAPGGRGDLKYGTYTLENEHLNRLQSQRALLLQGTESLNRATQSIERSHRIATETDQIGTEIIEELGEQRDQLERTKSRLVNTNENLSKSRKILRSMSRKVITNKLLLSVIILLELAILVGLVYYKFFRHH
B6: Synaptobrevin homolog YKT6 (in neuroblastoma cells) (protein, UniProt Q9CQW1 1-198)
chain: MKLYSLSVLYKGDPKAVLLKAAYDVSSFSFFQRSSVQEFMTFTSQLIVERSGKGSRASVKEQEYLCHVYVRSDSLAGVVIADSEYPSRVAFTLLEKVLDEFSKQVDRIDWPVGSPATIQYTGLDDHLSKYQNPREADPMSKVQAELDETKIILHNTMESLLERGEKLDDLVSKSEVLGTQSKAFYKTARKQNSCCAIM

What follows are binders tested against T1, hCLN6 (AAV9-hCLN6 transgene) (human) (assay: co-IP; hCLN6 (AAV9-hCLN6 representatives) immunoprecipitation; Western blot of partners; input ~3% of total protein loaded on IPs).

Binder	binding
B1	binds
B2	binds

Each binder was assayed against T2, CLN3 (tagged CLN3 expression plasmid) (assay: co-IP; tagged CLN3 or CLN8 expression plasmids used for immunoprecipitation; Western blot of partners; input ~3% of total protein loaded on IPs).

Binder	binding
B3	binds
B4	binds
B5	binds
B6	binds
